In paper PMC4489650, “Aurora-A-Dependent Control of TACC3 Influences the Rate of Mitotic Spindle Assembly” (PLoS Genetics, 2015):
No constants are given. Whether binding was seen depends on the method and setting. For part of these data: In cells and extracts the contact can be indirect. Some binding calls cover weakened binding; strength is not graded here. For part of these data: Where a sequence is shown, tags or fusion partners need not be part of it. Each block holds one binder with its values, some of them ahead of it.

The chains behind the UniProt entries cited, without tags or fusion partners.
UniProt Q9PTG8: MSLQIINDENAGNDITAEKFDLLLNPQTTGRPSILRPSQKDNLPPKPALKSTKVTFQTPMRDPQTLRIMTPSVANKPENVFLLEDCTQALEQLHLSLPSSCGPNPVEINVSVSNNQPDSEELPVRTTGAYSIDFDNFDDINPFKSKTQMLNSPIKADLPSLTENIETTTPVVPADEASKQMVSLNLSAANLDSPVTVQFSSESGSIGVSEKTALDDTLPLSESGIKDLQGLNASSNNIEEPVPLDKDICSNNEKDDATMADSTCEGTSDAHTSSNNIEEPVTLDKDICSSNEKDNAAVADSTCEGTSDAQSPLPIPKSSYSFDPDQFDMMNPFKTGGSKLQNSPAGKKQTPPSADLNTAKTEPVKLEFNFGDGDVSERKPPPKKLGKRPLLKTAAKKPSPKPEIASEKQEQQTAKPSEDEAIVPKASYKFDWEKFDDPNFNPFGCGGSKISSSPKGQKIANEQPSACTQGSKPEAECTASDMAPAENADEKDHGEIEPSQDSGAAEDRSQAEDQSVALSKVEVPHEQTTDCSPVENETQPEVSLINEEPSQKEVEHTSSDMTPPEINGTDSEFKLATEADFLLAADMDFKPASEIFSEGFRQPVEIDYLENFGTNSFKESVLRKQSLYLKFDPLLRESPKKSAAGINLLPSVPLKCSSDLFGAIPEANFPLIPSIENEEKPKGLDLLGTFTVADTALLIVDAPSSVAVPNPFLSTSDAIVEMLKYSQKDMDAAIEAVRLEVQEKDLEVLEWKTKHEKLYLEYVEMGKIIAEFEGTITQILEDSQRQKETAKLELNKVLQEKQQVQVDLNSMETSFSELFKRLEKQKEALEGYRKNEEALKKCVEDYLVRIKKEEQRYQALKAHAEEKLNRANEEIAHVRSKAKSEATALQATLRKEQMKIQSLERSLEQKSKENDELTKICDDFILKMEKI

Experiments:
[1] = target: T1, GST-AurA-DN (GST fused to Aurora-A catalytic domain 122–403 D274N) (UniProt O14965); assay: pull-down; GST co-precipitation: 100 ug GST-AurA-DN (2 uM in the TPX2 gradient experiment, with 5 uM TACC3act-H6c and 1-50 uM His6-TPX2^1-43) immobilised on Gluthathione Sepharose 4B; 100 ug TACC3 or TPX2^1-43 added, 2 hrs at 4 C; 50 mM Tris pH 7.5, 150 mM NaCl, 5 mM MgCl2, 5 mM beta-mercaptoethanol, 0.02% TWEEN 20; SDS-PAGE and anti-His6 blot; both purified
T1 sequence: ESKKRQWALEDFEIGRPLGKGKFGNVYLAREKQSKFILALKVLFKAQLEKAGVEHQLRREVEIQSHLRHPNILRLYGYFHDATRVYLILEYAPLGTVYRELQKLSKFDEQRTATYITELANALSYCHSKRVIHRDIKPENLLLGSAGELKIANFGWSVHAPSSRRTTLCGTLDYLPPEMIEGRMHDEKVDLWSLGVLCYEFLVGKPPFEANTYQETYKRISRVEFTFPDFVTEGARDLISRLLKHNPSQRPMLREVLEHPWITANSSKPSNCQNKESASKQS

[2] = target: GST-XTACC3 (full-length Xenopus TACC3, maskin) (Xenopus laevis) (UniProt Q9PTG8); assay: pull-down; 3 uM recombinant GST protein preincubated in CSF-arrested Xenopus egg extract, retrieved on beads (anti-GST on protein A Dynabeads by the methods; Gluthathione Sepharose by the legend); Western blot; only the target purified
[3] = target: GST-XTACC3 (full-length Xenopus TACC3, maskin) (Xenopus laevis) (UniProt Q9PTG8); assay: pull-down; in vitro GST pull-down: 5-10 ug GST recombinant protein on anti-GST coated beads, 0.25 uM His-AurA in kinase buffer (20 mM Hepes pH 7.5, 200 mM KCl, 30 mM MgCl2, 0.5 mM EGTA, 1 mM DTT, 0.05% Triton X-100, 1 mg/ml BSA), 30 mins at 22 C; Western blot; both purified

binding [1]: binds weakly
B1: TACC3act-H6c F525A (domain or fragment, human, UniProt Q9Y6A5 519-563, looked up)
chain: ELKEESARDPAEVLGTGAEVDYLEQFGTSSFKESALRKQSLYLKF
notes: also called F525A mutant; source: recombinant, purified; not shown: His6, C-terminal, kept

binding [2]: binds
B2: endogenous AurA in Xenopus egg extract (protein, UniProt Q91820 1-407)
chain: MERAVKENHKPSNVKIFHPMTEGAKRIPVNQPQSTQFRPPGTAVSAQRILGPSNVPQRVLAQAQKPILSSQKPTTQIPLRPATQGHQSSKPQGPNENRNPQQTSHSSTPNVEKKGSTDQGKTSAVPKEEGKKKQWCLEDFEIGRPLGKGKFGNVYLARERESKFILALKVLFKSQLEKAGVEHQLRREVEIQSHLRHPNILRLYGYFHDASRVYLILDYAPGGELFRELQKCTRFDDQRSAMYIKQLAEALLYCHSKKVIHRDIKPENLLLGSNGELKIADFGWSVHAPSSRRTTLCGTLDYLPPEMIEGRMHDETVDLWSLGVLCYEFLVGKPPFETDTHQETYRRISKVEFQYPPYVSEEARDLVSKLLKHNPNHRLPLKGVLEHPWIIKNSQLKKKDEPLPGAQ

binding [3]: binds
B3: His-AurA-WT (Xenopus Aurora A, wild-type) (enzyme, UniProt Q91820 1-407)
chain: B2 chain
